PMC5838018, “The Conserved ESCRT-III Machinery Participates in the Phagocytosis of Entamoeba histolytica” (Frontiers in Cellular and Infection Microbiology, 2018)
No constants are given. Whether binding was seen depends on the method and setting. In cells and extracts the contact can be indirect. Binding can be weak; no strength is given.

The chains behind the UniProt entries cited, without tags or fusion partners. Where a name states a change or a piece, a line headed by the entry shows the natural chain unless it says otherwise.
UniProt C4M1A5: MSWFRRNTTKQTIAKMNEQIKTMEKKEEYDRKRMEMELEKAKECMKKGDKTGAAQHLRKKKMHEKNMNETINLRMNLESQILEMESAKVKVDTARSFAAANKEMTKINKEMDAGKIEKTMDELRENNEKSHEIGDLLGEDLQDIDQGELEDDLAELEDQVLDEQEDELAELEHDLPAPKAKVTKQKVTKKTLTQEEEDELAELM
UniProt C4LZV3: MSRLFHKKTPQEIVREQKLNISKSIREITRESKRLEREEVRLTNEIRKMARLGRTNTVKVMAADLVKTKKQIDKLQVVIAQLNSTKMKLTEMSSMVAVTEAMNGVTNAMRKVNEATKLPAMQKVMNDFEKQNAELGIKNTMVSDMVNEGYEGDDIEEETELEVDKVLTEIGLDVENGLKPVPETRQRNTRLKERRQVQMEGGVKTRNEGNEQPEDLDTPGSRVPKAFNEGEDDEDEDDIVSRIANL
UniProt C4M7T5: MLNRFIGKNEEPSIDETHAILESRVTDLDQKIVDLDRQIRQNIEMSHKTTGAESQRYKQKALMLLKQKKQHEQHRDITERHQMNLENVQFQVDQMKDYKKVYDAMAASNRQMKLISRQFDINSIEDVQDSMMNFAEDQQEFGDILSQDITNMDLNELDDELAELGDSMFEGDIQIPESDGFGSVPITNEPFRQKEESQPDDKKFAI
UniProt C4M2Y2: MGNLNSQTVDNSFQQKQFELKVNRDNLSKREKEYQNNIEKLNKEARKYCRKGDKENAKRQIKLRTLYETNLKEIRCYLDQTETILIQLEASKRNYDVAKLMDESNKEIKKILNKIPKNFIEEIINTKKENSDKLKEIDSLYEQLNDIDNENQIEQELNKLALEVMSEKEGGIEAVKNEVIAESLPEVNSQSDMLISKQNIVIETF

Molecular target: EhVps32 (Entamoeba histolytica (endogenous in trophozoites, strain HM1:IMSS)) (UniProt C4M1A5)
Experiment: co-IP; mouse α-rEhVps32 antibody on protein G-agarose, incubated overnight at 4°C with pre-cleared trophozoite lysates (basal conditions and 30 min of erythrophagocytosis); western blot of the immunoprecipitates; pre-immune serum as control

Substance	binding
EhVps2 (from UniProt C4LZV3)	binds
EhVps20 (from UniProt C4M7T5)	binds
EhVps24 (from UniProt C4M2Y2)	binds
